The text below walks through data of paper doi:10.1101/2025.04.08.647777 (bioRxiv, 2025).

Sequences of proteins named here, by UniProt entry; tags and fusion partners are left off. A change or cut given only in a name is not applied to a line headed by its entry.
UniProt O14576: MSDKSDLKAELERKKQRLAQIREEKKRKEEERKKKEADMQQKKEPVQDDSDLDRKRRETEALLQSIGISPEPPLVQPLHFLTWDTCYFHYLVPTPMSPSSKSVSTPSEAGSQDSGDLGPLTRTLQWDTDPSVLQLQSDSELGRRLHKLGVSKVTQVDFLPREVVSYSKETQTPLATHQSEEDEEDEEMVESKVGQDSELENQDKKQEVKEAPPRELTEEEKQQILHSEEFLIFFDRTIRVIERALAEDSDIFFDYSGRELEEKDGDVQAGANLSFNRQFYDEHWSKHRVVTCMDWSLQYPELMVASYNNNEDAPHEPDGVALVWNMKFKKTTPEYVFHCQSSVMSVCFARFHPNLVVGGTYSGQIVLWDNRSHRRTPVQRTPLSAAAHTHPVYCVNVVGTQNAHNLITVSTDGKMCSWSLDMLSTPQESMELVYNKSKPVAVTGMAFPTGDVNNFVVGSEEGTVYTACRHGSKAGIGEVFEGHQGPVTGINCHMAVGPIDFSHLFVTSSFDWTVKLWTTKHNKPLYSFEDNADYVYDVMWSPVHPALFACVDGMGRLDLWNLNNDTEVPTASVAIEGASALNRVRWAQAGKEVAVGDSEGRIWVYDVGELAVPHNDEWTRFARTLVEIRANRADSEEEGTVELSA
UniProt O75935: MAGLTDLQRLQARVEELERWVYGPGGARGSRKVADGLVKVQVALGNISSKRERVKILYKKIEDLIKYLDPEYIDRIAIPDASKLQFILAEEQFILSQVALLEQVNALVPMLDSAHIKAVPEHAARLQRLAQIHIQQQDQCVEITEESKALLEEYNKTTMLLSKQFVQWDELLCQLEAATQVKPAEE
UniProt Q9UJW0: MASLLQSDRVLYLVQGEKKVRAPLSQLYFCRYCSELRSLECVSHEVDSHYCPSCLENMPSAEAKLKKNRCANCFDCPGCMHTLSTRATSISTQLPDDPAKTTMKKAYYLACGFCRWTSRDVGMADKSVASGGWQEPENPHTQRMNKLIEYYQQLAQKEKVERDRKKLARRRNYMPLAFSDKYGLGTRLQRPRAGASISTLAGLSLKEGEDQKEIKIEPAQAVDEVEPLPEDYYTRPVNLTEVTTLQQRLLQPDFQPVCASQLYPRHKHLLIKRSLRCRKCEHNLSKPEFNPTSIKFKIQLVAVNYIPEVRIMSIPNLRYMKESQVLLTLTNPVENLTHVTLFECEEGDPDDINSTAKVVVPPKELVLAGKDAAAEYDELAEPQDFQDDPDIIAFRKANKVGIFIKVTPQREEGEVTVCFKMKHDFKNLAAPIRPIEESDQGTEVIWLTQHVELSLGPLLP
UniProt Q13561: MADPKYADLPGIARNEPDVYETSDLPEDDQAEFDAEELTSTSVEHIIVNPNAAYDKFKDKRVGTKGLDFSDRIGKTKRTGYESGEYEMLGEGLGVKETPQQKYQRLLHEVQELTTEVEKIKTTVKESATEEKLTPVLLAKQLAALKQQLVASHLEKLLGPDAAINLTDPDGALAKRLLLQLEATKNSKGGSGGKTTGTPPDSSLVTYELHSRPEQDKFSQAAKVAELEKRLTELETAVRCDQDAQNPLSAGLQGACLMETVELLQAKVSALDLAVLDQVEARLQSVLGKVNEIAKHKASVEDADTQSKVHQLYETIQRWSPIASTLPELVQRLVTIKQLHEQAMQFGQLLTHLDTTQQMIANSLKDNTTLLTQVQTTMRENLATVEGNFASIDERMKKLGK
UniProt Q14204: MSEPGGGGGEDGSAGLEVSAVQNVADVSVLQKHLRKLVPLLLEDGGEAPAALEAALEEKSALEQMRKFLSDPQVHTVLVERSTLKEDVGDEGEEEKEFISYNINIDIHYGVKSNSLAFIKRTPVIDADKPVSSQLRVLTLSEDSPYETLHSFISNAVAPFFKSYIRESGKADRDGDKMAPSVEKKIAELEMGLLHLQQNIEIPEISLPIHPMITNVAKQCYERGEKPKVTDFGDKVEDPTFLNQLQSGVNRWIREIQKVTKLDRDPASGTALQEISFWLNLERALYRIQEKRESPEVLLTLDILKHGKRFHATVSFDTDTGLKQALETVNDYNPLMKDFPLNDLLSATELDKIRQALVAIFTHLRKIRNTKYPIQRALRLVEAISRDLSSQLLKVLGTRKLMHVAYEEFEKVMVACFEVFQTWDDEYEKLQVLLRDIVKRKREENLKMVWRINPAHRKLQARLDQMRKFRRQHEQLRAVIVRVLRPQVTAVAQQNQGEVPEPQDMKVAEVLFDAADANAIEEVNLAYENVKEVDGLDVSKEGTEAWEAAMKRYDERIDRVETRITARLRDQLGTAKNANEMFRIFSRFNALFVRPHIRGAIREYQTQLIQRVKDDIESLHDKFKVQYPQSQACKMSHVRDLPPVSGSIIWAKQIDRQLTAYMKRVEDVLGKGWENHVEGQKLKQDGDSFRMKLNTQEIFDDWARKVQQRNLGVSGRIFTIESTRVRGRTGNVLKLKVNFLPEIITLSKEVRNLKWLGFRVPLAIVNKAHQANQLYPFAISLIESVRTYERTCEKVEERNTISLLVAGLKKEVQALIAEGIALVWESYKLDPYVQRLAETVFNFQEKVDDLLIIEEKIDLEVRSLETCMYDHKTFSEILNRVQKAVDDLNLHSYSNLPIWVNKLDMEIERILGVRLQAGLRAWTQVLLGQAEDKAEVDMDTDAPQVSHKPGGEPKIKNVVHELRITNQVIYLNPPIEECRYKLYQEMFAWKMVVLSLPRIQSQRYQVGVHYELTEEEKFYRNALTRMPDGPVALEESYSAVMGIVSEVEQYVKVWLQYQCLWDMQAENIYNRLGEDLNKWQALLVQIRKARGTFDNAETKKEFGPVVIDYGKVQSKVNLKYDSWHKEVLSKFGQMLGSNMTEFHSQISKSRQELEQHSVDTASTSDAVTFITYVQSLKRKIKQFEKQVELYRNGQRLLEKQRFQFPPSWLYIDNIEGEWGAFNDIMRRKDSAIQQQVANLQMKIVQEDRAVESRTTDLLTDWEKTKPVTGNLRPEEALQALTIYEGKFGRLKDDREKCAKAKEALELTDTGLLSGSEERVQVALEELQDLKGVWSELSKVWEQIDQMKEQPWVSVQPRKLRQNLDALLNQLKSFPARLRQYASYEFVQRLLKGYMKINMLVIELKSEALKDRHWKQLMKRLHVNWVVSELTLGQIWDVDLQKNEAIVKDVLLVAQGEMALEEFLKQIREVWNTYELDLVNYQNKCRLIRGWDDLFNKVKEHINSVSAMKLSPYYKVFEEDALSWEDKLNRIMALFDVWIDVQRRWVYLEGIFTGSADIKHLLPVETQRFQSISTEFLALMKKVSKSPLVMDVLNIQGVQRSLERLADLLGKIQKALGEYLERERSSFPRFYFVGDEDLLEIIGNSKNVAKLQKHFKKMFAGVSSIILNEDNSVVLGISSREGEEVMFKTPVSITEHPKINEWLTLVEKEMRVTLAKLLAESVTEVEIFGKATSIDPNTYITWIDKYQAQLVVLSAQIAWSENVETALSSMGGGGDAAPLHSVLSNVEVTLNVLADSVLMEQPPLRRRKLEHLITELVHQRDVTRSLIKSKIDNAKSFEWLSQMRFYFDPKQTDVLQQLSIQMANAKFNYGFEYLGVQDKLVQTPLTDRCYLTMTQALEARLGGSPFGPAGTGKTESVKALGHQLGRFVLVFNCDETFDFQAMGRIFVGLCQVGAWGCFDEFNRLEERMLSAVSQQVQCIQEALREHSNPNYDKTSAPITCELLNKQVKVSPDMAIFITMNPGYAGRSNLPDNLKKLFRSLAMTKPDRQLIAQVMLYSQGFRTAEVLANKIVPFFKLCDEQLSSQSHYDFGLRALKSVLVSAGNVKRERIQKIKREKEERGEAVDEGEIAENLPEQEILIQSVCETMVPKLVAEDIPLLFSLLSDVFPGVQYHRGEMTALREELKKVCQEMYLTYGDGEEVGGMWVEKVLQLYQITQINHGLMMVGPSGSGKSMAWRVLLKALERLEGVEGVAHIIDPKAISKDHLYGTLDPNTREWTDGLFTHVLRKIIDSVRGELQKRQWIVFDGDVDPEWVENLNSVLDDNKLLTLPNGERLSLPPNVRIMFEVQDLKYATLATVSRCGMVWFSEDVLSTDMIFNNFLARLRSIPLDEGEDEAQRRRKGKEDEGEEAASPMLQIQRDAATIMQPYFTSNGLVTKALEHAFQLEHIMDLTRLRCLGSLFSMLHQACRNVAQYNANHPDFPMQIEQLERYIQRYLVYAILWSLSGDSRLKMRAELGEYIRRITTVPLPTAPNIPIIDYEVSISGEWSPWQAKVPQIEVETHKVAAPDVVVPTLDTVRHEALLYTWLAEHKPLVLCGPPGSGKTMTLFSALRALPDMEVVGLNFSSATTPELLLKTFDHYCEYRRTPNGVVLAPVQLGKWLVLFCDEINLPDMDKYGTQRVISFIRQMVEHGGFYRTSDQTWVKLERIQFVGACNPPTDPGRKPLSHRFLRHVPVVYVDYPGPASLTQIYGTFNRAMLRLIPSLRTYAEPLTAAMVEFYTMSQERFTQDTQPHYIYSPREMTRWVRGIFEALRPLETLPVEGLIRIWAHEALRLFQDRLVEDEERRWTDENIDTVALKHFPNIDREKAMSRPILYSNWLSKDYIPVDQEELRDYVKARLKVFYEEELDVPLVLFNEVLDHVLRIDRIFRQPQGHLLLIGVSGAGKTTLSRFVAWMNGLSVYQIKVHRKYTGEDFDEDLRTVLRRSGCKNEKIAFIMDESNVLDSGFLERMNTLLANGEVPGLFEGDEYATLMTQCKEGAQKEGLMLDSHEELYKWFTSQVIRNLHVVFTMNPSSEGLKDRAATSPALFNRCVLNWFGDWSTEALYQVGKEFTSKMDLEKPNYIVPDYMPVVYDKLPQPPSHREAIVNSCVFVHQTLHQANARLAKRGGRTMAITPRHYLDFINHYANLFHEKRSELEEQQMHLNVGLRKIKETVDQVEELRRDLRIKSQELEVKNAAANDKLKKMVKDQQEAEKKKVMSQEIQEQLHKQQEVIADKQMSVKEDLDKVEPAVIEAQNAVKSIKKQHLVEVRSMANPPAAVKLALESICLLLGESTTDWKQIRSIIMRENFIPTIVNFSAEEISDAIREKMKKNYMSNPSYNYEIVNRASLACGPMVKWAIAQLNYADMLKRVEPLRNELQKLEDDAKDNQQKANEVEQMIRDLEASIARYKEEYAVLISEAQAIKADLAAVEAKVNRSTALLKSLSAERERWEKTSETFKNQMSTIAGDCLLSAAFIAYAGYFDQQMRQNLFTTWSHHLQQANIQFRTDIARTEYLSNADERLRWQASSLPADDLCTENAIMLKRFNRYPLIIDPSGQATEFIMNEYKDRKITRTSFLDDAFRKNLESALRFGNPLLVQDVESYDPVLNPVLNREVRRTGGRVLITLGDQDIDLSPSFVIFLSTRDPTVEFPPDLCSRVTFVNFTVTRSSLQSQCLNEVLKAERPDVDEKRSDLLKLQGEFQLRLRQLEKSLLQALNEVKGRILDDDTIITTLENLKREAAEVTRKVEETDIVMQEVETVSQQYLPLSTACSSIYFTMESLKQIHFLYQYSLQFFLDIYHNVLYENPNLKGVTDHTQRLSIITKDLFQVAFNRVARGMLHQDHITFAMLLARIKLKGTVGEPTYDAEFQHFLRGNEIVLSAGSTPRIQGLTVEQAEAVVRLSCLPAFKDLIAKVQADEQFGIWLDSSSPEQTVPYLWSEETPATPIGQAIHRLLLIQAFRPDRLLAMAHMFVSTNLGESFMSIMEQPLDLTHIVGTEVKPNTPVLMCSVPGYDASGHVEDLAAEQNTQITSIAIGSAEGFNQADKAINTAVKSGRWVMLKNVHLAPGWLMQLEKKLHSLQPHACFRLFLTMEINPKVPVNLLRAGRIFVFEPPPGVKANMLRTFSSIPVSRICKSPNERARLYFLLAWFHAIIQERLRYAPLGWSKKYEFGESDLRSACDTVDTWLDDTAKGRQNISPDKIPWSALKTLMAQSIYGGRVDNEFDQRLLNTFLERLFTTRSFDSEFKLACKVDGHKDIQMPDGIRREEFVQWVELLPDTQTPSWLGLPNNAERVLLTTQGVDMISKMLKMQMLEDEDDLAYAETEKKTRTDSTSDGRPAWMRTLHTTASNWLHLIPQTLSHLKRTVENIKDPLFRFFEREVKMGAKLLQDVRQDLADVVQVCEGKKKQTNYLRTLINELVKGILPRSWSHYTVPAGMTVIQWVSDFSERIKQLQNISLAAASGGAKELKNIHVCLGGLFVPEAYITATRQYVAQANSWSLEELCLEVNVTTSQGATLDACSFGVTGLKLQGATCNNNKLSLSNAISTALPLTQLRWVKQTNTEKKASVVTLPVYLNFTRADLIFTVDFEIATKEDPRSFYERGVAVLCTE

Common to all, as to experiment: affinity purification with mass spectrometry
One experiment addresses SFB-DIC1 WT (UniProt O14576).
In the next experiment the target is SFB-DIC1 K42R (UniProt O14576).
A further experiment has as its target T1, SFB-Lis1 WT (UniProt P43034).
T1 sequence: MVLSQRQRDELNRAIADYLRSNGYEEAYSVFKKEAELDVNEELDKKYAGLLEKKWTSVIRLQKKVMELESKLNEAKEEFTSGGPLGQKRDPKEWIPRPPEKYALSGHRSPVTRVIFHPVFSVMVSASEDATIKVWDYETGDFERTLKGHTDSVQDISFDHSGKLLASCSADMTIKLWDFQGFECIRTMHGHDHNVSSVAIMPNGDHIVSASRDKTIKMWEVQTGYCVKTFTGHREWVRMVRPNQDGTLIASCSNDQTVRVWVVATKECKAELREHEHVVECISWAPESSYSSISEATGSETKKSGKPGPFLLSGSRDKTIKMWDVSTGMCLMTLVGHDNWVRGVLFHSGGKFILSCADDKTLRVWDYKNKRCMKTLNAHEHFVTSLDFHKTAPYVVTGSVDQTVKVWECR

Results are given in words; binding and its absence hold for the method and conditions named. In cells and extracts the contact can be indirect. These calls come from enrichment with a bait or labelling near it, and not all partners need be listed.

As for “dynactin subunit p22 (endogenous) (from UniProt O75935 1-186)”, in the experiment with SFB-DIC1 WT, the binding result is “binds”.

Consider “dynactin subunit p62 (endogenous) (from UniProt Q9UJW0 1-460)”, for which the binding result in the experiment with SFB-DIC1 WT was “binds”.

With “dynactin subunit p50 (endogenous) (from UniProt Q13561 1-401)”, the binding entry in the experiment with SFB-DIC1 WT is given as “binds”.

As to “dynein heavy chain (DHC), endogenous (from UniProt Q14204 1-4646)”, the binding entry with SFB-DIC1 WT and with SFB-DIC1 K42R was “binds” each time.

Turning to “LIC2 (endogenous) (from UniProt O43237 1-492)”, in the experiment with SFB-DIC1 WT, the binding result was “binds”.

B1: Nde1 (endogenous) (protein, UniProt Q9NXR1 1-335)
chain: MEDSGKTFSSEEEEANYWKDLAMTYKQRAENTQEELREFQEGSREYEAELETQLQQIETRNRDLLSENNRLRMELETIKEKFEVQHSEGYRQISALEDDLAQTKAIKDQLQKYIRELEQANDDLERAKRATIMSLEDFEQRLNQAIERNAFLESELDEKENLLESVQRLKDEARDLRQELAVQQKQEKPRTPMPSSVEAERTDTAVQATGSVPSTPIAHRGPSSSLNTPGSFRRGLDDSTGGTPLTPAARISALNIVGDLLRKVGALESKLASCRNLVYDQSPNRTGGPASGRSSKNRDGGERRPSSTSVPLGDKGLDTSCRWLSKSTTRSSSSC
Take B1: in the experiment with SFB-Lis1 WT, the binding result is reported as “binds”.
